Source: PubChem BioAssay AID248 (DTP/NCI, 2004)
The list is a part of this screen's results and no random one: it is rich in T/C values a quarter to a half above the control, in often repeated tests (any T/C) and in doses without a T/C. Other doses and runs of a compound stand elsewhere. T/C: endpoint of the treated group in % of that of the vehicle group. Some doses have a count of surviving animals in place of a T/C: the source holds a T/C of zero for them, seemingly a mark for toxic or unscored doses. Some doses without a T/C left all or most animals alive at the check, yet need not have been tolerated: survival well below the control is almost never listed, so the zero probably covers shortened survival too. Survivors were counted at the toxicity check, usually on the fifth day, unless a day is given; later deaths do not show. Schedules are NCI's codes, read here as Q, the interval in days (D) or hours (H), X, the number of doses. Some schedules carry Z or #; the key to these is not given. Where survival is the endpoint, this PubChem deposit counts one and a half times the control or more as active, and values a quarter to a half above the control carry no call in these data; other NCI protocols may use other cut-offs. Some T/C values carry the count of animals alive at the toxicity check (mostly the fifth day); where none is given, no animal had died by that day.

System: L1210 leukemia ip in BDF1 mice, survival T/C
Assay: NCI In Vivo Anticancer Drug Screen. Data for tumor model L1210 Leukemia (intraperitoneal) in B6D2F1 (BDF1) mice
Settings: T/C endpoint: mean survival time, higher T/C = longer survival
[1] = dose: 400.0 mg/kg/injection, schedule: Q01DX001 (ip), vehicle: saline
[2] = dose: 200.0 mg/kg/injection, schedule: Q01DX009 (ip), vehicle: Klucel (hydroxypropylcellulose) (HPC)

SMILES: [N-]=[N+]=CC(=O)CCC(N)C(=O)O (centres undefined)
- T/C (dose: 0.05 mg/kg/injection, schedule: Q01DX015 (ip), vehicle: water): 131 % of control
- T/C (dose: 0.1 mg/kg/injection, schedule: Q01DX009 (ip), vehicle: saline): 136 % of control
- T/C (dose: 0.1 mg/kg/injection, schedule: Q01DX009 (oral), vehicle: saline): 132 % of control
- T/C (dose: 0.1 mg/kg/injection, schedule: Q01DX015 (ip), vehicle: water): 125 % of control
- T/C (dose: 0.12 mg/kg/injection, schedule: Q01DX009 (oral), vehicle: saline): 140 % of control
- T/C (dose: 0.16 mg/kg/injection, schedule: Q02DX008 (ip), vehicle: water): 127 % of control
- T/C (dose: 0.2 mg/kg/injection, schedule: Q02DX005 (oral), vehicle: saline): 140 % of control
- T/C (dose: 0.31 mg/kg/injection, schedule: Q02DX008 (ip), vehicle: water): 139 % of control
- T/C (dose: 0.31 mg/kg/injection, schedule: Q02DX008 (oral), vehicle: water): 143 % of control
- T/C (dose: 0.39 mg/kg/injection, schedule: Q03HX008 (ip), vehicle: saline): 131 % of control
- T/C (dose: 0.4 mg/kg/injection, schedule: Q01DX009 (oral), vehicle: saline): 136 % of control
- survivor count (dose: 0.4 mg/kg/injection, schedule: Q01DX015 (ip), vehicle: other): 6 of 6
- T/C (dose: 0.5 mg/kg/injection, schedule: Q01DX009 (oral), vehicle: saline): 132 % of control
- survivor count (dose: 0.6 mg/kg/injection, schedule: Q01DX015 (ip), vehicle: other): 6 of 6
- T/C (dose: 0.62 mg/kg/injection, schedule: Q02DX008 (ip), vehicle: other): 138 % of control
- T/C (dose: 0.63 mg/kg/injection, schedule: Q02DX008 (oral), vehicle: water): 147 % of control
- T/C (dose: 0.78 mg/kg/injection, schedule: Q03HX008 (ip), vehicle: saline): 130 % of control
- survivor count (dose: 0.8 mg/kg/injection, schedule: Q01DX009 (oral), vehicle: saline): 10 of 10
- survivor count (dose: 0.8 mg/kg/injection, schedule: Q01DX015 (ip), vehicle: other): 6 of 6
- T/C (dose: 1.25 mg/kg/injection, schedule: Q02DX008 (ip), vehicle: other): 142 % of control
- T/C (dose: 1.56 mg/kg/injection, schedule: Q03HX008 (ip), vehicle: saline): 138 % of control [9 of 10 alive]
- T/C (dose: 1.56 mg/kg/injection, schedule: Q04DX003 (ip), vehicle: saline): 142 % of control
- T/C (dose: 3.12 mg/kg/injection, schedule: Q03HX008 (ip), vehicle: saline): 130 % of control
- T/C (dose: 3.12 mg/kg/injection, schedule: Q03HX016 (ip), vehicle: saline): 146 % of control
- T/C (dose: 3.12 mg/kg/injection, schedule: Q08DX002 (ip), vehicle: saline): 140 % of control
- T/C (dose: 6.25 mg/kg/injection, schedule: Q08DX002 (ip), vehicle: saline): 142 % of control
- T/C (dose: 10.0 mg/kg/injection, schedule: Q02DX008 (ip), vehicle: other): 147 % of control [5 of 6 alive]
- survivor count (dose: 25.0 mg/kg/injection, schedule: Q## X024 (ip), vehicle: saline): 3 of 10
- T/C (dose: 50.0 mg/kg/injection, schedule: Q01DX001 (ip), vehicle: saline): 149 % of control
- T/C (dose: 50.0 mg/kg/injection, schedule: Q01DX001 (ip), vehicle: water): 139 % of control
- T/C (dose: 50.0 mg/kg/injection, schedule: Q## X003 (ip), vehicle: saline): 134 % of control [9 of 10 alive]
- survivor count (dose: 50.0 mg/kg/injection, schedule: Q## X008 (ip), vehicle: saline): 6 of 10
- survivor count (dose: 50.0 mg/kg/injection, schedule: Q## X024 (ip), vehicle: saline): 0 of 10
- T/C (dose: 100.0 mg/kg/injection, schedule: Q01DX001 (ip), vehicle: water): 142 % of control
- T/C (dose: 100.0 mg/kg/injection, schedule: Q01DX001 (oral), vehicle: saline): 147 % of control
- survivor count (dose: 100.0 mg/kg/injection, schedule: Q## X008 (ip), vehicle: saline): 3 of 10
- survivor count (dose: 100.0 mg/kg/injection, schedule: Q## X016 (ip), vehicle: saline): 0 of 10
- survivor count (dose: 100.0 mg/kg/injection, schedule: Q## X024 (ip), vehicle: saline): 5 of 10
- T/C (dose: 150.0 mg/kg/injection, schedule: Q01DX001 (ip), vehicle: water): 144 % of control
- T/C (dose: 200.0 mg/kg/injection, schedule: Q01DX001 (oral), vehicle: saline): 131 % of control [8 of 10 alive]
- survivor count (dose: 200.0 mg/kg/injection, schedule: Q## X003 (ip), vehicle: saline): 0 of 10
- survivor count (dose: 200.0 mg/kg/injection, schedule: Q## X008 (ip), vehicle: saline): 3 of 10
- survivor count (dose: 200.0 mg/kg/injection, schedule: Q## X016 (ip), vehicle: saline): 3 of 10
- survivor count (dose: 200.0 mg/kg/injection, schedule: Q## X024 (ip), vehicle: saline): 2 of 10
- survivor count (dose: 250.0 mg/kg/injection, schedule: Q01DX001 (ip), vehicle: water): 3 of 4
- survivor count (dose: 300.0 mg/kg/injection, schedule: Q01DX001 (ip), vehicle: water): 4 of 4
- survivor count [1]: 8 of 10
- survivor count (dose: 400.0 mg/kg/injection, schedule: Q01DX001 (oral), vehicle: saline): 8 of 10
- survivor count (dose: 400.0 mg/kg/injection, schedule: Q## X008 (ip), vehicle: saline): 2 of 10
- survivor count (dose: 400.0 mg/kg/injection, schedule: Q## X016 (ip), vehicle: saline): 2 of 10
- survivor count (dose: 800.0 mg/kg/injection, schedule: Q01DX001 (oral), vehicle: saline): 1 of 10
- T/C (dose: 100.0 micrograms/kg/injection, schedule: Q01DX010 (ip), vehicle: saline): 138 % of control
- T/C (dose: 200.0 micrograms/kg/injection, schedule: Q01DX010 (ip), vehicle: saline): 140 % of control

SMILES: CCCCN(CCCC)CCNCC(Cc1ccccc1)c1ccccc1 (centres undefined)
- survivor count (dose: 200.0 mg/kg/injection, schedule: Q04DX002 (ip), vehicle: Klucel (hydroxypropylcellulose) (HPC)): 1 of 3
- survivor count (dose: 400.0 mg/kg/injection, schedule: Q04DX002 (ip), vehicle: Klucel (hydroxypropylcellulose) (HPC)): 0 of 3

SMILES: NC(=S)Nc1ccccc1Cl
- survivor count [1]: 0 of 4

SMILES: Cc1cc(C)c2nc(N)sc2c1
- survivor count (dose: 200.0 mg/kg/injection, schedule: Q04DX003 (ip), vehicle: saline with Tween-80): 0 of 6
- survivor count (dose: 400.0 mg/kg/injection, schedule: Q04DX003 (ip), vehicle: saline with Tween-80): 0 of 6

SMILES: [Cl][Sb]([Cl])([c]1ccccc1)([c]1ccccc1)[c]1ccccc1
- survivor count (dose: 100.0 mg/kg/injection, schedule: Q01DX009 (ip), vehicle: Klucel (hydroxypropylcellulose) (HPC)): 5 of 6
- survivor count (dose: 100.0 mg/kg/injection, schedule: Q04DX002 (ip), vehicle: saline with Tween-80): 1 of 3
- survivor count [2]: 0 of 6
- survivor count (dose: 200.0 mg/kg/injection, schedule: Q04DX002 (ip), vehicle: saline with Tween-80): 1 of 3
- survivor count (dose: 400.0 mg/kg/injection, schedule: Q04DX002 (ip), vehicle: saline with Tween-80): 1 of 3

SMILES: N#Cc1c(=O)[nH]c2ccccc2[n+]1[O-]
- survivor count [2]: 1 of 3
